Experimental data: PubChem BioAssay AID493014 (National Center for Advancing Translational Sciences (NCATS), 2011)
The other results are listed elsewhere or left out. Shown are side measurements of this screen, not its main read-out; they come without a call. Most of these compounds were active or inconclusive in the main read-out, so they are no random draw. Words in brackets tell the shape of the fitted curve; partial curves, single points and poor fits give uncertain potencies.

Test: qHTS Assay to Find Inhibitors of Chronic Active B-Cell Receptor Signaling
Details: ABC-DLBCL IkBa-CBG/CBR reporter, luminescence ratio (green luciferase fused to IkBa over red control in TMD8 lymphoma cells), 4 h
How it was run: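 Cell line TMD8 (human ABC DLBCL), stably expressing tet-inducible CBG68-IkBa fusion and CBR; IMDM/0.5% FBS; cpd up to 46 uM; dox induction, 4 h, 37C/5% CO2; dual luminescence; green/red ratio; MG132 control.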

[1] = measured here: CBR red luminescence, cell number
[2] = measured here: IkBa-CBG green luminescence

| Compound | AC50 [1] | AC50 [2] |
| --- | --- | --- |
| O=C(Nc1ccccc1N1CCCCC1)c1ncoc1-c1ccc(F)cc1 | 5.17 µM [rising, full curve] |  |
| O=C(Nc1ccc(Cl)cc1)/C(=C/c1cccc(O)c1)c1nc2ccccc2s1 | 29.1 µM [falling, single point] |  |
| CCc1c(O)nc(SCC(=O)Nc2nc3ccccc3s2)n(-c2ccc(C)cc2)c1=O | 0.447 µM [falling, full curve, poor fit] |  |
| COC(=O)c1cn(C(C)C(=O)NCc2ccco2)c2ccccc12 (stereo unspecified) | 14.6 µM [falling, partial curve, poor fit] |  |
| CCOC(=O)c1cc(-c2ccc(OC)cc2)nc2c1c(C)nn2CCC#N | 20.6 µM [rising, single point] |  |
| C/C(=N\NC(=O)c1nn(C)cc1Br)c1cccc(NC(=O)C(C)(C)C)c1 | 25.1 µM [falling, partial curve, poor fit] |  |
| CC(=O)N(C)C1(c2nnnn2CCOC(=O)Nc2ccc(Cl)cc2)CCCCC1 | 13 µM [rising, partial curve, poor fit] |  |
| CC(Sc1ccccc1)C(=O)N1CCN(S(=O)(=O)c2cccc(Br)c2)CC1 (stereo unspecified) | 35.5 µM [falling, single point] |  |
| Cc1ccc(NC(=O)NNC(=O)c2cccs2)cc1 | 16.4 µM [falling, partial curve] |  |
| O=C(Nc1cccc(NC(=O)c2nccc3ccccc23)c1)c1ccco1 | 7.08 µM [falling, partial curve, poor fit] |  |
| Cn1c(=O)oc2cc(S(=O)(=O)NCCC(=O)NCCc3ccc(Cl)cc3)ccc21 | 6.51 µM [falling, full curve] |  |
| NS(=O)(=O)c1ccc(CCNc2ncnc3c2c(-c2ccccc2)cn3-c2ccc(F)cc2)cc1 | 29.1 µM [falling, single point] |  |
| CSc1nnc(-c2cccc(C)c2)n1N | 4.61 µM [rising, single point] |  |
| O=C(O)c1ccc2nc(-c3ccccc3)c(-c3ccccc3)nc2c1 | 8.2 µM [falling, partial curve] |  |
| O=C(CSc1ccc2ccccc2n1)Nc1ccc(N2CCOCC2)cc1 | 2.24 µM [rising, full curve, poor fit] |  |
| O=[N+]([O-])c1cc(Cl)ccc1Nc1ccccc1 | 31.6 µM [rising, single point] |  |
| O=C(NCCOc1ccccc1)C1=CC=CN2CCS(=O)(=O)N=C12 | 16.4 µM [rising, single point] |  |
| O=C(c1ccco1)N1CCN(C2CC(=O)N(c3ccc4c(c3)OCO4)C2=O)CC1 (stereo unspecified) | 29.1 µM [rising, single point] |  |
| CCOc1ccc(-n2c(N)c(-c3nc4ccccc4[nH]3)sc2=S)cc1 | 10.3 µM [falling, partial curve] |  |
| CCOC(=O)c1[nH]c2ccc(OC)cc2c1NC(=O)c1nonc1C | 0.562 µM [rising, full curve, poor fit] |  |
| CCOC(=O)c1sc(NC(=O)CCc2ccc(OC)cc2)nc1C | 0.501 µM [falling, full curve, poor fit] |  |
| O=C(CSCc1ccc(Cl)cc1)Nc1ccc(Br)cc1C(=O)O | 4.47 µM [falling, full curve, poor fit] |  |

A draw from above in order of molar mass, low to high:

| Compound | AC50 [1] | AC50 [2] |
| --- | --- | --- |
| CCOC(=O)c1[nH]c2ccc(OC)cc2c1NC(=O)c1nonc1C | 0.562 µM [rising, full curve, poor fit] |  |
| CC(=O)N(C)C1(c2nnnn2CCOC(=O)Nc2ccc(Cl)cc2)CCCCC1 | 13 µM [rising, partial curve, poor fit] |  |
| NS(=O)(=O)c1ccc(CCNc2ncnc3c2c(-c2ccccc2)cn3-c2ccc(F)cc2)cc1 | 29.1 µM [falling, single point] |  |

Carrying on.

| Compound | AC50 [1] | AC50 [2] |
| --- | --- | --- |
| O=S(=O)(c1ccc(F)cc1)c1nc(-c2ccco2)oc1Nc1ccccc1 | 16.4 µM [falling, partial curve] |  |
| Cn1c(NC(=O)/C=C/c2ccc(Cl)c(Cl)c2)cc(=O)n(C)c1=O | 29.1 µM [rising, partial curve, poor fit] |  |
| CC(=O)Oc1ccc(-c2csc(Nc3ccc(Cl)cn3)n2)cc1 | 6.31 µM [falling, full curve] |  |
| CCOc1ccc(NC(=O)Cn2nc(C(N)=O)c3ccccc3c2=O)cc1S(=O)(=O)N1CCCC1 | 3.66 µM [falling, full curve] |  |
| CCCN1CCN(C(=O)c2nn(-c3ccc(OC)cc3)c(=O)c3c2c2ccccc2n3C)CC1 | 0.708 µM [falling, partial curve, poor fit] |  |
| O=C1Nc2ccccc2Nc2ncccc21 | 17.8 µM [falling, single point] |  |
| COc1ccc(CN2CC(=O)N(c3ccc(Cl)cc3)C2=S)cc1OC | 20 µM [rising, partial curve, poor fit] |  |
| O=C(/C=C/c1ccc(OCc2c(F)cccc2Cl)cc1)N1CCOCC1 | 22.4 µM [falling, partial curve] |  |
| CCOc1cccc(C(=O)Nc2ccc3[nH]ncc3c2)c1 | 3.16 µM [falling, full curve] |  |
| CCC1CCCCN1CCCNC(=O)c1ccc(/C=C2/Sc3ccccc3NC2=O)cc1 (stereo unspecified) | 4.47 µM [falling, partial curve, poor fit] |  |
| N#Cc1ccccc1OCC(=O)N(C1CCCCC1)C1CCS(=O)(=O)C1 (stereo unspecified) | 7.31 µM [falling, partial curve] |  |
| NC(=O)C1CCN(c2oc(-c3ccccc3F)nc2S(=O)(=O)c2ccc(Cl)cc2)CC1 | 29.1 µM [rising, single point] |  |
| CN1C(=O)/C(=C/c2ccc(OCc3ccccc3F)cc2)NC1=S | 4.47 µM [rising, partial curve] |  |
| Nc1nc(OCC(F)(F)F)cc(Oc2ccccc2F)n1 | 11.2 µM [rising, partial curve, poor fit] |  |
| COc1cc2nc(CC(C)C)n(NC(=O)c3ccccc3Br)c(=O)c2cc1OC | 7.94 µM [falling, partial curve, poor fit] |  |
| O=C(CSc1nnc(-c2ccco2)o1)Nc1ccccc1Cl | 3.98 µM [falling, full curve, poor fit] |  |
| CN1C(=O)C2(c3ccccc31)N(C)CC(c1ccccn1)C21SC(=S)N(Cc2ccco2)C1=O (stereo unspecified) | 17.8 µM [falling, partial curve, poor fit] |  |
| Cn1cc(CN2CCCC(CO)(Cc3ccccc3)C2)cn1 (stereo unspecified) | 0.794 µM [falling, full curve] |  |
| CCN(CC)CCNC(=S)Nc1ccc2nc(N3CCCC3)cc(C)c2c1 | 1.41 µM [falling, full curve, poor fit] |  |
| S=C(NCCc1ccc(Cl)cc1)NC1CCCC1 | 12.6 µM [falling, single point] |  |
| COC(=O)C1CCN(c2ccc([N+](=O)[O-])cc2[N+](=O)[O-])CC1 | 8.91 µM [rising, partial curve, poor fit] |  |
| Cc1nc2ncnn2c(C)c1CCC(=O)NCCc1ccccc1 | 6.51 µM [falling, single point] |  |

| Compound | AC50 [1] | AC50 [2] |
| --- | --- | --- |
| Cc1c(NC(=O)Nc2ccc(Cl)c(Cl)c2)c(=O)n(-c2ccccc2)n1C | 6.51 µM [rising, single point] |  |
| O=C(CCS(=O)(=O)c1cccc2nsnc12)NCc1ccccc1Cl | 7.31 µM [falling, partial curve] |  |
| CC(C)Oc1ccc2c(=O)c(-c3ccccc3)coc2c1 | 1.16 µM [rising, full curve] |  |
| CCCc1nn(C)c(C(N)=O)c1[N+](=O)[O-] | 2.82 µM [rising, single point] |  |
| COc1ccc(NC(=O)Cn2c(=O)cc(C)c3c(C)nn(-c4cccc(Cl)c4C)c32)cc1OC | 35.5 µM [falling, single point] |  |
| O=C(COc1ccc2ccccc2c1)Nc1nnc(-c2ccco2)s1 | 0.794 µM [rising, full curve, poor fit] |  |
| CC1CCc2sc(C(=O)NC3CCCCC3)cc2C1 (stereo unspecified) | 2.06 µM [falling, full curve, poor fit] |  |
| COC(=O)c1ccc(NC(=O)c2ccc(OC(C)=O)c(OC)c2)cc1 | 11.2 µM [falling, partial curve, poor fit] |  |
| CC(=O)Nc1nc2ccc(-c3nc4ccccc4o3)cc2s1 |  | 23.1 µM [falling, partial curve, poor fit] |
| O=S(=O)(CCSc1nc2ccccc2s1)c1nc2ccccc2s1 | 8.2 µM [falling, partial curve] | 10.3 µM [rising, partial curve, poor fit] |
| O=C1c2ccccc2C(=O)N1CSc1nnnn1-c1ccccc1 | 0.58 µM [rising, partial curve, poor fit] |  |
| CC(=O)c1sc(NC(=O)c2ccco2)nc1-c1ccccc1 |  | 0.58 µM [rising, full curve, poor fit] |
| CC(C)CN1CCN(CC#Cc2ccccc2)CC1CCO (stereo unspecified) | 35.5 µM [rising, single point] |  |
| O=C(Nc1nnc(C(F)(F)F)s1)c1cccnc1 | 1.84 µM [falling, full curve] |  |
| Cc1ccc(S(=O)(=O)N2CCC(C(=O)OCC(=O)N(Cc3ccccc3)C(C)(C)C)CC2)cc1C | 11.6 µM [falling, partial curve, poor fit] |  |
| COc1cccc(NC(=O)c2sc3nc4n(c(=O)c3c2C)CCC4)c1 | 0.0891 µM [falling, full curve, poor fit] |  |
| CCCCOC(=O)CSc1nc2c(c(=O)[nH]c(=O)n2C)n1C/C=C(\C)Cl | 31.6 µM [rising, single point] |  |
| COc1cc(/C=C2/SC(=S)N(Cc3ccccc3)C2=O)cc(OC)c1O | 10 µM [rising, single point] |  |
| COC(=O)c1ccc(COC(=O)c2ccc(CO)cc2)o1 | 29.1 µM [rising, single point] |  |
| COc1ccc(NC(=O)COc2ccccc2)c(OC)c1 | 7.31 µM [falling, partial curve, poor fit] |  |
| COc1ccc(OC)c(NC(=O)NCCc2cccc(Cl)c2)c1 | 35.5 µM [rising, single point] |  |

Copied from the list:
Value of `O=S(=O)(c1ccc(F)cc1)c1nc(-c2ccco2)oc1Nc1ccccc1` under AC50 [1]: 16.4 µM [falling, partial curve]
Value of `O=C(Nc1cccc(NC(=O)c2nccc3ccccc23)c1)c1ccco1` under AC50 [1]: 7.08 µM [falling, partial curve, poor fit]
